Measured values: PubChem BioAssay AID1487 (National Center for Advancing Translational Sciences (NCATS), 2009)
The other results are listed elsewhere or left out. Further columns of the screen follow, without active or inactive calls. The list favours compounds with an active or inconclusive main result. Potencies come from curve fits of mixed quality, noted in brackets.

Test: qHTS Assay for Modulators of Lamin A Splicing
Details: HeLa LMNA splicing GFP/RFP minigene ratio, 48 h
In short: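 S3 HeLa stable clones carrying a lamin A-EGFP splicing minigene plus DsRed2 were seeded at 600 cells/well in Opti-MEM with 2% FBS, pin-dosed and incubated 48 h at 37°C. Acumen cytometry (488 nm) gave the GFP/RFP total-intensity ratio.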

[1] = measured here: GFP splicing reporter channel
[2] = measured here: RFP viability control channel

| Structure (SMILES) | AC50 [1] | AC50 [2] |
| --- | --- | --- |
| CC(=O)N1CCN(CC(=O)Nc2ccccc2Sc2ccccc2)CC1 | 12.6 µM [rising, partial curve] | 17.8 µM [rising, partial curve] |
| O=C(c1ccco1)N1CCN(c2nc(C(F)(F)F)nc3c2nnn3Cc2ccccc2)CC1 | 35.5 µM [rising, single point] | 35.5 µM [rising, single point] |
| C/C(=N\OCC(=O)NC12CC3CC(CC(C3)C1)C2)c1cc2ccccc2o1 | 10 µM [rising, partial curve, poor fit] | 11.2 µM [rising, partial curve] |
| CCCC/C(O)=C1\C(=O)CC(C)(C)CC1=Nc1ccc(OC)cc1 | 11.2 µM [rising, single point] | 15.8 µM [rising, single point] |
| COC(=O)c1ccc(COc2ccc(-c3nn[nH]n3)cc2)cc1 |  | 0.282 µM [falling, full curve] |
| CN(C)c1ccc(NC(=O)CSc2nc3ccccc3c(=O)n2C2CCCCC2)cc1 | 4.47 µM [rising, full curve, poor fit] | 12.6 µM [rising, partial curve] |
| CC(Oc1ccccc1)C(=O)OCc1cc(=O)n2nc(C(C)C)sc2n1 (stereo not given) | 6.31 µM [falling, partial curve, poor fit] | 0.00316 µM [falling, full curve, poor fit] |
| CCCSc1ccc(C(=O)Nc2ccc(Cl)cc2)cn1 | 2.24 µM [falling, partial curve, poor fit] |  |
| Cc1ccc(-c2noc(CNCCCN(C)C)n2)cc1 |  | 0.0112 µM [falling, full curve, poor fit] |
| CC(=O)c1ccc(Sc2ccc(C(C)=O)cc2)cc1 |  | 28.2 µM [rising, single point] |
| COc1ccc(Cl)cc1NC(=O)C1CCN(S(=O)(=O)c2ccc3c(c2)CCCN3C(=O)C2CCC2)CC1 | 6.31 µM [falling, full curve, poor fit] |  |
| O=C(NCCCN1CCOCC1)c1ccc(Br)cc1Br | 2.82 µM [falling, single point] | 0.501 µM [falling, single point] |
| COc1ccccc1NC(=O)Cn1cc(C(=O)c2ccncc2)c(=O)c2cc(C)ccc21 |  | 0.00316 µM [falling, full curve, poor fit] |
| CCn1c(N2CCN(CC(=O)c3ccc(OC)cc3)CC2)nc2ccccc21 |  | 8.91 µM [rising, partial curve] |
| O=C(CCC(=O)N1CCN(S(=O)(=O)c2ccc(Cl)cc2)CC1)Nc1cccc(Br)c1 |  | 11.2 µM [rising, partial curve, poor fit] |
| COc1cccc(-c2cc(C(=O)Nc3c(C)nn(Cc4ccccc4)c3C)no2)c1 |  | 35.5 µM [rising, single point] |
| CCOC(=O)N1CCN(C(=O)CSc2nnc(COc3ccc(Cl)cc3)o2)CC1 |  | 11.2 µM [rising, single point] |
| Cc1ccc(NC(=O)COc2ccc(Br)cc2CO)cc1 |  | 28.2 µM [rising, single point] |
| Cc1ccc2nc(SCC(=O)Nc3cc(C(C)(C)C)nn3-c3ccccc3)[nH]c2c1 |  | 20 µM [rising, single point] |

Some of these compounds in order of number of heavy atoms, falling:

| Structure (SMILES) | AC50 [1] | AC50 [2] |
| --- | --- | --- |
| COc1ccc(Cl)cc1NC(=O)C1CCN(S(=O)(=O)c2ccc3c(c2)CCCN3C(=O)C2CCC2)CC1 | 6.31 µM [falling, full curve, poor fit] |  |
| O=C(c1ccco1)N1CCN(c2nc(C(F)(F)F)nc3c2nnn3Cc2ccccc2)CC1 | 35.5 µM [rising, single point] | 35.5 µM [rising, single point] |
| COc1ccccc1NC(=O)Cn1cc(C(=O)c2ccncc2)c(=O)c2cc(C)ccc21 |  | 0.00316 µM [falling, full curve, poor fit] |
| CN(C)c1ccc(NC(=O)CSc2nc3ccccc3c(=O)n2C2CCCCC2)cc1 | 4.47 µM [rising, full curve, poor fit] | 12.6 µM [rising, partial curve] |
| COc1cccc(-c2cc(C(=O)Nc3c(C)nn(Cc4ccccc4)c3C)no2)c1 |  | 35.5 µM [rising, single point] |
| CCOC(=O)N1CCN(C(=O)CSc2nnc(COc3ccc(Cl)cc3)o2)CC1 |  | 11.2 µM [rising, single point] |
| CCn1c(N2CCN(CC(=O)c3ccc(OC)cc3)CC2)nc2ccccc21 |  | 8.91 µM [rising, partial curve] |
| C/C(=N\OCC(=O)NC12CC3CC(CC(C3)C1)C2)c1cc2ccccc2o1 | 10 µM [rising, partial curve, poor fit] | 11.2 µM [rising, partial curve] |
| CC(Oc1ccccc1)C(=O)OCc1cc(=O)n2nc(C(C)C)sc2n1 (stereo not given) | 6.31 µM [falling, partial curve, poor fit] | 0.00316 µM [falling, full curve, poor fit] |
| CCCC/C(O)=C1\C(=O)CC(C)(C)CC1=Nc1ccc(OC)cc1 | 11.2 µM [rising, single point] | 15.8 µM [rising, single point] |
| COC(=O)c1ccc(COc2ccc(-c3nn[nH]n3)cc2)cc1 |  | 0.282 µM [falling, full curve] |
| Cc1ccc(NC(=O)COc2ccc(Br)cc2CO)cc1 |  | 28.2 µM [rising, single point] |
| Cc1ccc(-c2noc(CNCCCN(C)C)n2)cc1 |  | 0.0112 µM [falling, full curve, poor fit] |
| CC(=O)c1ccc(Sc2ccc(C(C)=O)cc2)cc1 |  | 28.2 µM [rising, single point] |

Next part

| Structure (SMILES) | AC50 [1] | AC50 [2] |
| --- | --- | --- |
| CCCc1nn(C)c(C(=O)Nc2ccc(Cl)cc2)c1Cl |  | 22.4 µM [rising, partial curve, poor fit] |
| Cn1cccc1/C=C1\CCC/C(=C\c2cccn2C)C1=O | 12.6 µM [rising, partial curve, poor fit] |  |
| Cc1ccc(C(=O)OCc2ccc3c(c2)OCO3)cc1S(=O)(=O)N1CCCCC1 |  | 14.1 µM [rising, partial curve] |
| Cc1nnc(SCC(=O)N2c3ccccc3C(C)(c3ccccc3)CC2(C)C)s1 (stereo not given) |  | 11.2 µM [rising, partial curve] |
| CCCOc1ccc(C2=NNC(=O)CC2)cc1 | 1.58 µM [falling, partial curve, poor fit] |  |
| CCOc1ccccc1Oc1coc2cc(OCC(=O)O)ccc2c1=O | 0.0631 µM [falling, full curve, poor fit] |  |
| CSc1nc(N)n2nc(-c3ccccc3)cc2n1 |  | 0.224 µM [falling, full curve, poor fit] |
| COc1ccccc1CNC(=O)C(=O)NCC(c1ccco1)N1CCOCC1 (stereo not given) | 0.0355 µM [falling, full curve, poor fit] |  |
| Cc1ccc(C)n1-c1cccc(S(=O)(=O)N2CCOCC2)c1 | 31.6 µM [rising, single point] |  |
| Cc1ccc(NC(=O)CN2C(=O)CC(c3ccc(F)cc3)=Nc3ccccc32)cc1F |  | 35.5 µM [falling, partial curve, poor fit] |
| CCn1cc(CN2N=C(C)CC2c2ccccc2)c(C)n1 (stereo not given) | 0.0355 µM [falling, full curve, poor fit] | 0.0355 µM [falling, full curve, poor fit] |
| COc1cccc(/C=N/NC(=O)C[n+]2ccccc2)c1O | 35.5 µM [rising, single point] |  |
| Cn1c(N)c(C(=O)COC(=O)c2cc(C(F)(F)F)nc3ccccc23)c(=O)n(Cc2ccccc2)c1=O |  | 22.4 µM [rising, partial curve] |
| O=C(COC(=O)Cc1ccccc1F)Nc1ccc2c(c1)OCO2 |  | 11.2 µM [falling, partial curve, poor fit] |
| COc1ccc(NS(=O)(=O)c2ccc(NC(=S)NC(=O)CC(C)C)cc2)cc1 | 12.6 µM [falling, single point] |  |
| C=CCNC(=S)NNC(=O)c1ccc(OCC(C)C)cc1 |  | 35.5 µM [rising, single point] |
| COc1ccc(OCC(O)Cn2c(Br)nc3c2c(=O)[nH]c(=O)n3C)cc1 (stereo not given) |  | 35.5 µM [rising, single point] |
| O=C(c1ccccc1Cl)N1CCc2ccccc2C1 |  | 35.5 µM [rising, single point] |
| O=C(CSCc1ccccc1Cl)NCc1ccc(Cl)c(Cl)c1 |  | 7.08 µM [rising, partial curve, poor fit] |

| Structure (SMILES) | AC50 [1] | AC50 [2] |
| --- | --- | --- |
| CCOC(=O)C(C)Oc1ccc(OCc2ccccc2)cc1 (stereo not given) | 0.447 µM [falling, partial curve] | 0.02 µM [falling, full curve, poor fit] |
| COC1OC(CO)C(OC2OC(C(=O)O)C(OC3OC(COS(=O)(=O)O)C(OC4OC(C(=O)O)C(OC5OC(CO)C(OC6OC(C(=O)O)C(OC7OC(COS(=O)(=O)O)C(OC8OC(C(=O)O)=C[C@H](O)C8OS(=O)(=O)O)C(O)C7NC(C)=O)[C@@H](O)C6O)C(O)C5NC(C)=O)[C@@H](O)C4O)C(O)C3NC(C)=O)[C@@H](O)C2O)C(O)C1NC(C)=O (stereo not given in full) | 3.55 µM [rising, single point] |  |
| Cc1ccc(N(CC(=O)N/N=C/c2cccnc2)S(=O)(=O)c2ccccc2)cc1 |  | 0.1 µM [rising, full curve, poor fit] |
| CCOC(=O)c1cc(CC)sc1NC(=O)COC(=O)c1cc[n+]([O-])cc1 |  | 0.0794 µM [rising, full curve, poor fit] |
| Cc1[nH]c2ccccc2c1C(=O)C(=O)N1CCCc2ccccc21 |  | 0.0398 µM [rising, full curve, poor fit] |
| Cc1[nH]c2ccccc2c1/C=N/NC(=O)CNC(=O)c1ccc2c(c1)OCO2 |  | 17.8 µM [rising, partial curve, poor fit] |
| Cc1cc(C)c2c(N)c(S(=O)(=O)c3ccccc3)sc2n1 | 15.8 µM [rising, partial curve, poor fit] | 12.6 µM [rising, partial curve] |
| COc1ccc(S(=O)(=O)NCc2csc(C)n2)cc1 |  | 7.08 µM [rising, single point] |
| O=C(CSCc1nc2ccccc2[nH]1)Nc1ccc(Oc2ccccc2)cc1 |  | 17.8 µM [rising, single point] |
| c1ccc(-c2cc(CSc3nc4ccccc4[nH]3)on2)cc1 |  | 10 µM [rising, partial curve] |
| COc1ccc(C2NC(=O)NC(C)=C2C(=O)OCc2ccc3c(c2)OCO3)cc1OC (stereo not given) |  | 17.8 µM [falling, single point] |
| Oc1c(C(c2ccccc2Cl)N2CCOCC2)sc2nc(-c3ccco3)nn12 (stereo not given) |  | 3.55 µM [rising, single point] |
| Cc1ccc(C(=O)N2CCN(c3ccc(F)cc3)CC2)cc1NC(=O)c1nsc2ccccc12 | 0.708 µM [rising, full curve] | 2.82 µM [rising, partial curve] |
| Nn1c(Cc2cccc3ccccc23)nnc1SCc1ccc(Cl)c(Cl)c1 |  | 14.1 µM [rising, single point] |
| O=C(Nc1ccc([N+](=O)[O-])cc1)Nc1nc(-c2ccc(Cl)s2)cs1 |  | 3.16 µM [rising, full curve] |
| O=C(CNC(=O)C1COc2ccccc2O1)N/N=C/c1ccc(O)cc1O (stereo not given) | 15.8 µM [rising, single point] | 35.5 µM [rising, single point] |
| C/C=C/c1ccc(OCCCCN2CC(C)CC(C)C2)c(OC)c1 (stereo not given) | 0.0224 µM [falling, full curve, poor fit] | 0.0282 µM [falling, full curve, poor fit] |
| OC(COc1ccc2c(c1)CCC2)Cn1cnc2ccccc21 (stereo not given) | 11.2 µM [rising, partial curve, poor fit] | 12.6 µM [rising, partial curve] |
